According to the supplement of paper PMC7858590:
± gives the standard deviation of the averaged measurements. Whole data set: some 3,800 compounds, median “cell shape (eccentricity) Z-score vs DMSO control” near 1.1, cut for the lowest 2% near -4.7. The list shows a part of the results.

System: human monocyte-derived macrophages (M0)
Assay: cell shape (eccentricity) Z-score vs DMSO control; higher = more elongated, M2-like morphology
Conditions: 20 µM; 24 h; macrophage state: M0 (M-CSF)
Experimental: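 Primary human monocyte-derived macrophages (M-CSF differentiated, pooled from 4 donors, 5000 cells/well in 384-well plates) were treated with each compound at 20 uM for 24 h, then fixed and stained with phalloidin/DAPI and imaged on an Opera Phenix (6 fields, about 1000 cells/well). Cell eccentricity was measured with CellProfiler, and a Z-score (t-test) was computed against 4 DMSO control wells in the same row. Negative values mean round (M1-like) cells and positive values mean elongated (M2-like) cells; the paper's hit cutoffs are Z <= -4 (M1) and Z >= 6 (M2). Scale: negative = round, M1-like.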

| SMILES | cell shape (Z-score) |
| --- | --- |
| C=C1C[C@]23C[C@@]1(O)CC[C@H]2[C@@]12C=C[C@H](O)[C@](C)(C(=O)O1)[C@H]2[C@@H]3C(=O)O | -0.753 |
| O=C(c1ccc2c(c1)OCO2)N1CCCCC1 | -0.873 |
| COc1cc(O)c2c(=O)cc(C)oc2c1CC=C(C)C | 4.2 |
| O=C(Oc1ccc([C@@H]2Oc3cc(O)cc(O)c3C[C@H]2O)cc1O)c1cc(O)c(O)c(O)c1 | 0.214 |
| CCOC(=O)/C=C\n1nnc(-c2cccc(Cl)c2)n1 | 4.62 |
| COCCCCC(=NOCCN)c1ccc(C(F)(F)F)cc1 | -14.7 |
| CNCc1ccccc1 | 2.47 |
| CC(=O)[C@@]1(O)CCC2C3CCC4=CC(=O)CC[C@]4(C)C3CC[C@@]21C (stereo not given in full) | 2.17 |
| O=C(O)Cc1ccccc1Nc1c(Cl)cccc1Cl | -2.82 |
| Cn1cnnc1Sc1c([N+](=O)[O-])ncn1C | 2.65 |
| Nc1nc(NCCc2ccc(O)cc2)nc2nc(-c3ccco3)nn12 | 2.77 |
| CCCCCCCCC/C=C/CCCCC(=O)C1C(=O)CCC(O)C1=O (stereo not given) | 1.37 |
| CCOC(=O)OC(C)OC1=C(C(=O)Nc2ccccn2)N(C)S(=O)(=O)c2ccccc21 (stereo not given) | 1.06 |
| COc1cc(OC)cc(OC)c1 | 2.38 |
| CN1C(=O)C(Cc2c[nH]c3ccccc23)NC1=S (stereo not given) | 4.67 |
| COc1cc2c(Oc3ccc(NC(=O)C4(C(=O)Nc5ccc(F)cc5)CC4)cc3F)ccnc2cc1OCCCN1CCOCC1 | 4.4 |
| CN(C)CCCSc1ccccc1NC(=O)C=Cc1ccccc1 | 0.44 |
| OC(CCN1CCCCC1)(c1ccccc1)C1CC2C=CC1C2 (stereo not given) | 1.11 |
| Cc1ccc(CC2(O)CCN(CCOc3ccc(O)cc3)CC2)cc1 | 1.75 |
| CC1(O)C(O)C(CO)OC1n1cnc2c(NC3CCCC3)nc(Cl)nc21 (stereo not given) | 2.53 |

| SMILES | cell shape (Z-score) |
| --- | --- |
| COc1cc2nc(N3CCCN(C)CC3)nc(NC3CCN(Cc4ccccc4)CC3)c2cc1OC | 3.25 |
| CSC(=O)OCC1=C[C@@H]2OC(=O)C3=CO[C@@H](O[C@@H]4O[C@H](CO)[C@@H](O)[C@H](O)[C@H]4O)[C@H]1[C@@H]32 | 1.25 |
| CC(=O)OCC1=C[C@H](O)[C@@H]2C(C(=O)O)=CO[C@@H](O[C@@H]3O[C@H](CO)[C@@H](O)[C@H](O)[C@H]3O)[C@H]12 | -1.17 |
| Cc1cc(O)c(C(=O)N[C@@H](C(=O)N[C@@H]2C(=O)N3C(C(=O)O)=C(CSc4nnnn4C)CS[C@H]23)c2ccc(O)cc2)cn1 | 2.09 |
| C[C@]12CCC(=O)C=C1CCC1C2[C@@H](O)C[C@@]2(C)C1CC[C@]2(O)C(=O)CO (stereo not given in full) | -1.04 |
| O=C1C(=O)N(Cc2ccc(Cl)c(Cl)c2)c2ccccc21 | -0.0499 |
| COC1=CC(=O)O[C@@H](CCc2ccccc2)[C@@H]1O | 0.84 |
| N=C(N)c1ccc(N2CCN(C3CCN(CC(=O)O)CC3)CC2)cc1 | 1.66 |
| CCNC(=O)C1OC(n2cnc3c(N)nc(NCCc4ccc(CCC(=O)O)cc4)nc32)C(O)C1O (stereo not given) | 2.87 |
| Clc1ccc(CSC(Cn2ccnc2)c2ccc(Cl)cc2Cl)cc1 (stereo not given) | 2.22 |
| C/C=C(\C)C(=O)OC1CCC(=O)OC1/C=C/C(O)C(C)O (stereo not given) | 0.389 |
| C/C=C(/C)C(=O)O[C@H]1C[C@@](C)(O)C(=O)[C@@H](OC(=O)/C(C)=C\C)[C@@]2(C)CC[C@@](O)(C(C)C)[C@H]12 | 1.83 ± 0.59 |
| Cc1cc(O)cc2oc3cc(O)cc(O)c3c(=O)c12 | -1.58 |
| C=CCn1c(=O)n(C2OC(CO)C(O)C2O)c2nc(N)[nH]c(=O)c21 (stereo not given) | 2.14 |
| O=C(OC1C(c2c(O)cc(O)c(C(=O)c3ccc(O)cc3)c2O)OC(CO)C(O)C1O)c1cc(O)c(O)c(O)c1 (stereo not given) | 0.624 ± 0.24 |
| C[C@@H]1O[C@@H](Oc2cc(O)c3c(=O)c(O[C@@H]4O[C@@H](C)[C@H](O)[C@@H](O[C@@H]5OC[C@@H](O)[C@H](O)[C@H]5O)[C@H]4O[C@@H]4O[C@H](CO)[C@@H](O)[C@H](O)[C@H]4O)c(-c4ccc(O)c(O)c4)oc3c2)[C@H](O)[C@H](O)[C@H]1O | 1.3 |
| Oc1ccc([C@H]2Oc3cc(O)cc(O)c3C[C@H]2O)cc1 | 1.71 |
| COc1cc(O)c(C(=O)/C=C/c2ccc(OC)c(OC)c2)c(OC)c1 | 0.627 ± 2 |
| CO[C@H]1CN(C)C(=O)c2cccc(C#N)c2OC[C@H]2O[C@@H](CC[C@H]2OC)CCN(C)C(=O)[C@H]1C | 2.38 |
| OC1(c2ccc(Cl)cc2)CCNCC1 | 0.736 |

Single entries from the list.
Under cell shape (Z-score), COc1cc(O)c(C(=O)/C=C/c2ccc(OC)c(OC)c2)c(OC)c1 is entered as 0.627 ± 2
Under cell shape (Z-score), OC1(c2ccc(Cl)cc2)CCNCC1 is entered as 0.736

(listing goes on)

| SMILES | cell shape (Z-score) |
| --- | --- |
| CN(C)CCN(Cc1ccccc1)c1ccccn1 | 2.01 |
| CN(C)CCCC1(c2ccc(F)cc2)OCc2cc(C#N)ccc21 (stereo not given) | -0.667 |
| CC1(C)S[C@@H]2[C@H](NC(=O)Cc3ccccc3)C(=O)N2[C@H]1C(=O)O | -0.81 |
| Nc1ccn([C@@H]2O[C@H](CO)[C@@H](O)C2(F)F)c(=O)n1 | -1.18 ± 2.9 |
| CCCN(CCC)CC1CCCCN1CCNC(=O)N1c2ccccc2C(=O)Nc2cccnc21 (stereo not given) | 1.21 |
| NCCCCCCNS(=O)(=O)c1cccc2c(Cl)cccc12 | 2.91 |
| COc1cc2c(ccc3cc(OC)c(OC)c(O)c32)cc1O | 0.937 |
| CCN(CC)CCOCCOC(=O)C1(c2ccccc2)CCCC1 | 1.23 |
| C=C(C(=O)O)C(CCCCCCO)C(=O)O (stereo not given) | 1.66 |
| CN1CCN2c3ccccc3Cc3ccccc3C2C1 (stereo not given) | 0.466 |
| CC1=NN(c2ccc(C(=O)O)cc2)C(=O)/C1=C/c1ccc(-c2cc(C)c(C)cc2[N+](=O)[O-])o1 | 5.36 |
| Cc1ccc(OCC(O)C(C)NC(C)C)c2c1CCC2 (stereo not given) | 2.52 |
| Cc1ccccc1NC(=N)Nc1ccccc1C | 2.28 |
| C=C(c1ccc(C(=O)O)cc1)c1cc2c(cc1C)C(C)(C)CCC2(C)C | 4.68 ± 0.93 |
| COc1cc(/C=C/C(=O)OC2CC3CCC2(C)C3(C)C)ccc1O (stereo not given) | 8.55 |
| O=C(/C=C/c1ccccc1)CC(=O)/C=C/c1ccccc1 | -8.63 |
| CCN(CC)C(=O)c1cccc(C)c1 | 2.78 |
| COc1c2c(c(C)c3c1C(=O)OC3)OC1(C)CC(O)C(C(C)(C)O)C(C)(CCC(=O)O)C1C2 (stereo not given) | 0.417 ± 1.1 |
| C[C@H]1O[C@H](O[C@H]2[C@H](O)[C@@H](O)[C@@H](O[C@H]3[C@H](O)[C@@H](O)C(O)O[C@@H]3CO)O[C@@H]2CO)[C@H](O)[C@@H](O)[C@@H]1N[C@H]1C=C(CO)[C@@H](O)[C@H](O)[C@H]1O (stereo not given in full) | -0.306 |
| COC1/C=C/OC2(C)Oc3c(C)c(O)c4c(c3C2=O)C2(C=C(NC(=O)/C(C)=C\C=C\C(C)C(O)C(C)C(O)C(C)C(OC(C)=O)C1C)C4=O)OCC(=O)O2 (stereo not given) | 1.4 |
